Assay [1] deals with DEAD box RNA helicase 6 (DDX6) (human (endogenous in 293T)) (UniProt P26196). The assay can be described thus: proximity ligation; Duolink PLA on fixed, saponin-permeabilised 293T cells chronically infected with HIV-1 (293T-HIV); one rabbit and one mouse primary antibody to the two endogenous proteins; spots where the antigens are within ~40 nm; cells untreated or treated 16 h with 10 uM PAV-818, 10 uM PAV-543 or DMSO.

Sequences of proteins named here, by UniProt entry; tags and fusion partners are left off.
UniProt P26196: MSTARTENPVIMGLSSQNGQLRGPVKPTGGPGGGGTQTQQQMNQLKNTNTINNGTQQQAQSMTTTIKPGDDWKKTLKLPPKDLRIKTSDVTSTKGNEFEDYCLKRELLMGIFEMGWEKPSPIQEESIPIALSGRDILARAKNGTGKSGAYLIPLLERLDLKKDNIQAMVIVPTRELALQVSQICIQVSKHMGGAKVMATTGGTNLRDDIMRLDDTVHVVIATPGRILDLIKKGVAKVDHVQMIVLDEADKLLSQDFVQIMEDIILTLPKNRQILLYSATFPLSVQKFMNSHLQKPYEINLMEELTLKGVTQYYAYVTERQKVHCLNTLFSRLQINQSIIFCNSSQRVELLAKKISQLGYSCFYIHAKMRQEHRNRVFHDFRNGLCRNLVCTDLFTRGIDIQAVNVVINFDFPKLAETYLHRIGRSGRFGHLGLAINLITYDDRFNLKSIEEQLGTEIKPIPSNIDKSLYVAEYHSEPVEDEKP
UniProt Q8IZH2: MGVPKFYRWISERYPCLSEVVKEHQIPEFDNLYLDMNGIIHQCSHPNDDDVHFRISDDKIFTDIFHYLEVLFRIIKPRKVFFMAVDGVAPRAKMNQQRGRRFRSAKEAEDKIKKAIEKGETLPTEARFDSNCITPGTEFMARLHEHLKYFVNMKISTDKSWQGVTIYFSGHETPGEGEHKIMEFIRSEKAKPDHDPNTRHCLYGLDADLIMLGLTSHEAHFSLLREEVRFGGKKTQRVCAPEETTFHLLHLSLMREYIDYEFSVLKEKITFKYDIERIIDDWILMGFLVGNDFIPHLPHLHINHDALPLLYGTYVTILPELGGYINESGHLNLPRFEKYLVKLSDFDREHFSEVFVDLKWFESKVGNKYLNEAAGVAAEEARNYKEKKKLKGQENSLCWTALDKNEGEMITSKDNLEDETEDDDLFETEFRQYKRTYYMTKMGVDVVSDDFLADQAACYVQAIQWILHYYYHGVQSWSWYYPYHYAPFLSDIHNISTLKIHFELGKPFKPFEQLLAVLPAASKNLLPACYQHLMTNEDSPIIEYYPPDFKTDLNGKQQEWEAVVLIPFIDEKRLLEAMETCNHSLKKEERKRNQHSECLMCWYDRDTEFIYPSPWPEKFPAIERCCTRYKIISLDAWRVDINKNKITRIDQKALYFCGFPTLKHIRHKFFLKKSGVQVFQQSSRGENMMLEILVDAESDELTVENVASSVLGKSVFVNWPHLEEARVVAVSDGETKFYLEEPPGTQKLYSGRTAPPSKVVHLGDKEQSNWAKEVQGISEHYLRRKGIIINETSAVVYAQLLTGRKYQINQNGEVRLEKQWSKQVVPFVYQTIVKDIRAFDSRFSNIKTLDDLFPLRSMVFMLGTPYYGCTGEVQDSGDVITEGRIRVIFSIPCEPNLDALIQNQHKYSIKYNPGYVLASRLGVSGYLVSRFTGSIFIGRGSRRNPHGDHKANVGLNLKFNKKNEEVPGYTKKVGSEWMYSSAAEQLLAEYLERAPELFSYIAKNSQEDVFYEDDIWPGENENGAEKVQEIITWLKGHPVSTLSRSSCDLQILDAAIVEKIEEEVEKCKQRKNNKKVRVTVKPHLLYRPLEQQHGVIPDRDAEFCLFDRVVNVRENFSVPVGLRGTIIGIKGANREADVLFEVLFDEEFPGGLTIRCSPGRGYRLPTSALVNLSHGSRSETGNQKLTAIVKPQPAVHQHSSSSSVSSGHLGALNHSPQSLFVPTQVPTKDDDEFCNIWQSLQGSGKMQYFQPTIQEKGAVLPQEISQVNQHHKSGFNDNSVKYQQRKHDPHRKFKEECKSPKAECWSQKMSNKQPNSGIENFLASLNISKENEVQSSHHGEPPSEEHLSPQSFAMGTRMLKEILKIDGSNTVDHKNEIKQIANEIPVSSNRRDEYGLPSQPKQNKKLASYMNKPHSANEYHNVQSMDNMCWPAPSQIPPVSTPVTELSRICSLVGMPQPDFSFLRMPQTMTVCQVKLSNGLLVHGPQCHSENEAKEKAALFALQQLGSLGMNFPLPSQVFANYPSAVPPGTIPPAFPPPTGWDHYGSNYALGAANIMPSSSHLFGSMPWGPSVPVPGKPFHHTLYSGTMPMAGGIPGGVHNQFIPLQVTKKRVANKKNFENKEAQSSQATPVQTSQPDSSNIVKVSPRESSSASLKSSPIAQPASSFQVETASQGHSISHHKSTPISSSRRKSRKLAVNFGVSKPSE
UniProt Q13283: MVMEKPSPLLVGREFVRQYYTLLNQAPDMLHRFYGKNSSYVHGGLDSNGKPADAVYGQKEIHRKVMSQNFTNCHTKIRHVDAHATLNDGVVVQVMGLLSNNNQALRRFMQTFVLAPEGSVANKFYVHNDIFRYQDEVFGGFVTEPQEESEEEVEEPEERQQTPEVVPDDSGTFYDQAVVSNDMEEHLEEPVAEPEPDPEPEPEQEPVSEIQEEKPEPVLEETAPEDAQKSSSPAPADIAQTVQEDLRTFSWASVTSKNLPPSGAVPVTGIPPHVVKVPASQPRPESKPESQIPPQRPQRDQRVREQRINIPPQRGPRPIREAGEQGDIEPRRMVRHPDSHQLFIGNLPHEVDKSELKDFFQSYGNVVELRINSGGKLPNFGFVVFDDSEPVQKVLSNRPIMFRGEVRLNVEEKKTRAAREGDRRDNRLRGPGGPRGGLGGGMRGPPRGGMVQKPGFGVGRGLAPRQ

Assay [2] addresses T1, TIAR (human (endogenous in 293T)) (UniProt Q01085).
T1 sequence: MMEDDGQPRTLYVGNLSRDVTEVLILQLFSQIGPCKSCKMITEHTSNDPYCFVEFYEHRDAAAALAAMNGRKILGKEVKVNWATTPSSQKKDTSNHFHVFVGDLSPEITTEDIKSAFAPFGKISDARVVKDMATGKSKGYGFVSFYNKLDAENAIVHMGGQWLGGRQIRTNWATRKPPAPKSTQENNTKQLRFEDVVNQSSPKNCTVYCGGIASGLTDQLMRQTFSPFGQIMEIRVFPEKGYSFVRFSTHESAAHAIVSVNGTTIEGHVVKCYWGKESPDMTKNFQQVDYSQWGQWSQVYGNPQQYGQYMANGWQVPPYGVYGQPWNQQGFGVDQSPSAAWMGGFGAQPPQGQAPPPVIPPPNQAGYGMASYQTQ
The description is as above.

These are yes or no findings as the source states them, for the method shown. Binding seen in cells or lysates may run through a third protein. Some results given as binding are weak or reduced against the parent protein; the word gives no strength.

On to “5'-3' exoribonuclease 1 (XRN1) (from UniProt Q8IZH2 1-1706)”, for which the binding result in assay [1] is on record as “binds”. In the case of “Ras-GAP SH3 domain-binding protein 1 (G3BP1) (from UniProt Q13283 1-466)”, the binding entry in assay [2] is on record as “binds”.

The values are drawn from PMC7925099, “Identification of an Antiretroviral Small Molecule That Appears To Be a Host-Targeting Inhibitor of HIV-1 Assembly” (Journal of Virology, 2021).
